# Laboratory results taken from the supplement of paper PMC8256030.
# Where “and” joins values, the source holds several entries; their conditions need not be identical. Equal entries are not always repeated. Some of the results follow. Single values are uncertain here, since repeats match poorly.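 HEK293T cells were given each compound shortly before transfection with a reporter in which red mCherry is followed by the SARS-CoV-2 frameshift element and then GFP in the −1 frame, so GFP appears only after frameshifting.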
# Tested on: HEK293T
# Assay: percent viability (nuclei count) relative to control; higher = more viable cells
# Settings: 10 µM; 24 h
row,Compound,percent viability
1,CCCCCCCCCC(=O)N[C@@H](Cc1c[nH]c2ccccc12)C(=O)N[C@@H](CC(N)=O)C(=O)N[C@@H](CC(=O)O)C(=O)N[C@@H]1C(=O)NCC(=O)N[C@@H](CCCN)C(=O)N[C@@H](CC(=O)O)C(=O)N[C@H](C)C(=O)N[C@@H](CC(=O)O)C(=O)NCC(=O)N[C@H](CO)C(=O)N[C@@H]([C@H](C)CC(=O)O)C(=O)N[C@@H](CC(=O)c2ccccc2N)C(=O)O[C@@H]1C,196%
2,CCCCC1C(=O)N(c2ccccc2)N(c2ccccc2)C1=O [phenylbutazone],238% and 272%
3,Cc1nnc(C(C)C)n1C1C[C@H]2CC[C@@H](C1)N2CC[C@H](NC(=O)C1CCC(F)(F)CC1)c1ccccc1 (stereo in doubt) [maraviroc],122%
4,Cc1c(-c2ccc(O)cc2)n(Cc2ccc(OCCN3CCCCCC3)cc2)c2ccc(O)cc12 [bazedoxifene],245%
5,O=C(Nc1c(Cl)cncc1Cl)c1ccc(OC(F)F)c(OCC2CC2)c1 [roflumilast],233%
6,NC(=O)c1ccc([N+](=O)[O-])cc1Cl [aklomide],199%
7,CCC(C)n1ncn(-c2ccc(N3CCN(c4ccc(OCC5COC(Cn6cncn6)(c6ccc(Cl)cc6Cl)O5)cc4)CC3)cc2)c1=O (stereo not given),74.1%
8,NS(=O)(=O)c1ccc(N2CCCCS2(=O)=O)cc1 [sultiame],48%
9,C[C@H](C#Cc1ccc(Cc2ccc(F)cc2)s1)N(O)C(N)=O [atreleuton],135%
10,CN1CCCCC1CCN1c2ccccc2Sc2ccc([S+](C)[O-])cc21 (stereo not given) [Mesoridazine besylate],264%
11,NC(C(=O)O)C(O)c1ccc(O)c(O)c1 (stereo not given),47.6%
12,CC(=O)Nc1ccc(S(=O)(=O)c2ccc(NC(C)=O)cc2)cc1 [acedapsone],198%
13,CCN(CC)CCNC(=O)c1cc(Br)c(N)cc1OC [Bromopride],214%
14,NC(Cc1ccc(Cl)cc1)C(=O)O (stereo not given) [fenclonine],29%
15,Nc1nc(=O)c2ncn([C@@H]3C[C@H](CO)[C@H]3CO)c2[nH]1 [lobucavir],173%
16,O=C(Nc1ccc(C(=O)O)c(O)c1)c1ccccc1 [calcium benzamidosalicylate],90.2%
17,CCCCCCCCCCCC(=O)OC[C@@H](O)[C@H]1OC[C@H](O)[C@H]1O [sorbitan laurate],176%
18,CCCc1cc(=O)[nH]c(=S)[nH]1 [propylthiouracil],40.2%
19,CC(=O)SC[C@@H](Cc1ccccc1)C(=O)NCC(=O)OCc1ccccc1 [ecadotril],213%
20,CCCCCC(=O)O[C@]1(C(C)=O)CC[C@H]2[C@@H]3CCC4=CC(=O)CC[C@@H]4[C@H]3CC[C@@]21C [gestonorone caproate],201%

# Another view of 2 compounds above.
row	Compound	percent viability
2	CCCCC1C(=O)N(c2ccccc2)N(c2ccccc2)C1=O [phenylbutazone]	238% and 272%
19	CC(=O)SC[C@@H](Cc1ccccc1)C(=O)NCC(=O)OCc1ccccc1 [ecadotril]	213%

# (next part)

row,Compound,percent viability
1,CC(C(=O)O)c1ccc(N2CC=CC2)c(Cl)c1 (stereo not given) [pirprofen],86.6%
2,O=C(O)c1cc(/N=N/c2ccc(S(=O)(=O)Nc3ccccn3)cc2)ccc1O,163%
3,CNC(=O)c1cnn(-c2nc(N)c3ncn([C@@H]4O[C@H](CO)[C@@H](O)[C@H]4O)c3n2)c1 [regadenoson],272%
4,O=C(CCCN1CCC(n2c(=S)[nH]c3ccccc32)CC1)c1ccc(F)cc1 [timiperone],379%
5,C=C(C#N)C(=O)OCCCC [enbucrilate],139%
6,Cc1ccc(S(=O)(=O)NCl)cc1 [tosylchloramide sodium],212%
7,CCC(c1ccccc1)c1noc(CCN(CC)CC)n1 (stereo not given),156%
8,CN1CCN(C2=Nc3ccccc3Oc3ccc(Cl)cc32)CC1,152%
9,CC(C)(C)[C@]1(O)CCN2C[C@H]3c4ccccc4CCc4cccc(c43)[C@@H]2C1 [butaclamol],136%
10,CN[C@@H]1[C@H](O[C@H]2[C@H](O[C@H]3[C@H](O)[C@@H](O)[C@H](N=C(N)N)[C@@H](O)[C@@H]3N=C(N)N)O[C@@H](C)[C@]2(O)C=O)O[C@@H](CO)[C@H](O)[C@H]1O [streptomycin],179%
11,O=C(O)CC/C=C\CC[C@@H]1[C@@H](N2CCCCC2)[C@@H](O)C[C@@H]1OCc1ccc(-c2ccccc2)cc1 [vapiprost],106%
12,CC(C1=C(CCN(C)C)Cc2ccccc21)c1ccccn1 (stereo not given) [dimetindene],129%
13,O=C(O)c1ccc(-n2nc(-c3ccccc3O)nc2-c2ccccc2O)cc1 [deferasirox],146%
14,COc1cc2c(cc1OC)[C@@H](Cc1cc(OC)c(OC)c(OC)c1)[N+](C)(CCCOC(=O)CC/C=C/CCC(=O)OCCC[N+]1(C)CCc3cc(OC)c(OC)cc3[C@H]1Cc1cc(OC)c(OC)c(OC)c1)CC2 (stereo not given in full) [Mivacron],241%
15,COc1ccc2c(c1)N(C[C@H](C)CN(C)C)c1ccccc1S2 [Levoprome],329%
16,Nc1nc2c(ncn2COC(CO)CO)c(=O)[nH]1 [ganciclovir],308%
17,CCC1Nc2cc(Cl)c(S(N)(=O)=O)cc2S(=O)(=O)N1 (stereo not given) [ethiazide],194%
18,CC1=C(/C=C/C(C)=C/C=C/C(C)=C/C(=O)Nc2ccc(O)cc2)C(C)(C)CCC1 [Fenretinide],24.5%
19,CN(C)CCC(c1ccc(Br)cc1)c1ccccn1 (stereo not given) [brompheniramine],74.9%
20,CC(C)NCC(O)c1ccc(NS(C)(=O)=O)cc1 (stereo not given),188%
